Source: the supplement of paper PMC8728848
Some of the results follow.

Assays:
Experiment in all cases: glycan array binding signal (z-score within array); higher = stronger binding
Conditions in all cases: glycan notation: IUPAC condensed, linker removed
[1] = biological target: Gal(b1-4)GlcNAc(b1-2)[Gal(b1-4)GlcNAc(b1-6)]Man(a1-6)[GlcNAc(b1-4)][Gal(b1-4)GlcNAc(b1-2)Man(a1-3)]Man(b1-4)GlcNAc(b1-4)GlcNAc
Outline: (§1)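 The binding signal is a Z-score computed within each array and averaged over linkers. Arrays of the same protein sequence at different concentrations or buffers were also averaged together. Data originate from 3228 arrays in the Consortium for Functional Glycomics database, kept only where the protein sequence was available.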

[2] = biological target: Gal(b1-4)GlcNAc(b1-2)[Gal(b1-4)GlcNAc(b1-6)]Man(a1-6)[GlcNAc(b1-4)][Gal(b1-4)GlcNAc(b1-2)[Gal(b1-4)GlcNAc(b1-4)]Man(a1-3)]Man(b1-4)GlcNAc(b1-4)[Fuc(a1-6)]GlcNAc
Outline: as §1

[3] = biological target: Gal(b1-4)GlcNAc(b1-3)Gal(b1-3)GalNAc
Outline: as §1

[4] = biological target: Gal(b1-4)GlcNAc(b1-3)Gal(b1-3)GlcNAc
Outline: as §1

[5] = biological target: Gal(b1-4)GlcNAc(b1-3)Gal(b1-4)Glc
Outline: as §1

[6] = biological target: Gal(b1-4)GlcNAc(b1-3)Gal(b1-4)GlcNAc
Outline: as §1

[7] = biological target: Gal(b1-4)GlcNAc(b1-3)Gal(b1-4)GlcNAc(b1-2)Man(a1-3)[Gal(b1-4)GlcNAc(b1-3)Gal(b1-4)GlcNAc(b1-2)Man(a1-6)]Man(b1-4)GlcNAc(b1-4)GlcNAc
Outline: as §1

[8] = biological target: Gal(b1-4)GlcNAc(b1-3)Gal(b1-4)GlcNAc(b1-2)Man(a1-3)[Gal(b1-4)GlcNAc(b1-3)Gal(b1-4)GlcNAc(b1-2)Man(a1-6)]Man(b1-4)GlcNAc(b1-4)[Fuc(a1-6)]GlcNAc
Outline: as §1

[9] = biological target: Gal(b1-4)GlcNAc(b1-3)Gal(b1-4)GlcNAc(b1-2)[Gal(b1-4)GlcNAc(b1-3)Gal(b1-4)GlcNAc(b1-6)]Man(a1-6)[Gal(b1-4)GlcNAc(b1-3)Gal(b1-4)GlcNAc(b1-2)Man(a1-3)]Man(b1-4)GlcNAc(b1-4)GlcNAc
Outline: as §1

[10] = biological target: Gal(b1-4)GlcNAc(b1-3)Gal(b1-4)GlcNAc(b1-2)[Gal(b1-4)GlcNAc(b1-3)Gal(b1-4)GlcNAc(b1-6)]Man(a1-6)[Gal(b1-4)GlcNAc(b1-3)Gal(b1-4)GlcNAc(b1-2)Man(a1-3)]Man(b1-4)GlcNAc(b1-4)[Fuc(a1-6)]GlcNAc
Outline: as §1

[11] = biological target: Gal(b1-4)GlcNAc(b1-3)Gal(b1-4)GlcNAc(b1-3)Gal(b1-4)GlcNAc
Outline: as §1

[12] = biological target: Gal(b1-4)GlcNAc(b1-3)Gal(b1-4)GlcNAc(b1-3)Gal(b1-4)GlcNAc(b1-2)Man(a1-3)[Gal(b1-4)GlcNAc(b1-3)Gal(b1-4)GlcNAc(b1-3)Gal(b1-4)GlcNAc(b1-2)Man(a1-6)]Man(b1-4)GlcNAc(b1-4)GlcNAc
Outline: as §1

[13] = biological target: Gal(b1-4)GlcNAc(b1-3)Gal(b1-4)GlcNAc(b1-3)Gal(b1-4)GlcNAc(b1-2)Man(a1-3)[Gal(b1-4)GlcNAc(b1-3)Gal(b1-4)GlcNAc(b1-3)Gal(b1-4)GlcNAc(b1-2)Man(a1-6)]Man(b1-4)GlcNAc(b1-4)[Fuc(a1-6)]GlcNAc
Outline: as §1

[14] = biological target: Gal(b1-4)GlcNAc(b1-3)Gal(b1-4)GlcNAc(b1-3)Gal(b1-4)GlcNAc(b1-2)[Gal(b1-4)GlcNAc(b1-3)Gal(b1-4)GlcNAc(b1-3)Gal(b1-4)GlcNAc(b1-6)]Man(a1-6)[Gal(b1-4)GlcNAc(b1-3)Gal(b1-4)GlcNAc(b1-3)Gal(b1-4)GlcNAc(b1-2)Man(a1-3)]Man(b1-4)GlcNAc(b1-4)[Fuc(a1-6)]GlcNAc
Outline: as §1

[15] = biological target: Gal(b1-4)GlcNAc(b1-3)Gal(b1-4)GlcNAc(b1-3)Gal(b1-4)GlcNAc(b1-3)Gal(b1-4)GlcNAc(b1-2)Man(a1-3)[Gal(b1-4)GlcNAc(b1-3)Gal(b1-4)GlcNAc(b1-3)Gal(b1-4)GlcNAc(b1-3)Gal(b1-4)GlcNAc(b1-2)Man(a1-6)]Man(b1-4)GlcNAc(b1-4)GlcNAc
Outline: as §1

[16] = biological target: Gal(b1-4)GlcNAc(b1-3)Gal(b1-4)GlcNAc(b1-3)Gal(b1-4)GlcNAc(b1-3)Gal(b1-4)GlcNAc(b1-2)Man(a1-3)[Gal(b1-4)GlcNAc(b1-3)Gal(b1-4)GlcNAc(b1-3)Gal(b1-4)GlcNAc(b1-3)Gal(b1-4)GlcNAc(b1-2)Man(a1-6)]Man(b1-4)GlcNAc(b1-4)[Fuc(a1-6)]GlcNAc
Outline: as §1

[17] = biological target: Gal(b1-4)GlcNAc(b1-3)Gal(b1-4)GlcNAc(b1-3)Gal(b1-4)GlcNAc(b1-3)Gal(b1-4)GlcNAc(b1-2)[Gal(b1-4)GlcNAc(b1-3)Gal(b1-4)GlcNAc(b1-3)Gal(b1-4)GlcNAc(b1-3)Gal(b1-4)GlcNAc(b1-6)]Man(a1-6)[Gal(b1-4)GlcNAc(b1-3)Gal(b1-4)GlcNAc(b1-3)Gal(b1-4)GlcNAc(b1-3)Gal(b1-4)GlcNAc(b1-2)Man(a1-3)]Man(b1-4)GlcNAc(b1-4)[Fuc(a1-6)]GlcNAc
Outline: as §1

[18] = biological target: Gal(b1-4)GlcNAc(b1-3)Gal(b1-4)GlcNAc(b1-3)Gal(b1-4)GlcNAc(b1-3)Gal(b1-4)GlcNAc(b1-3)Gal(b1-4)GlcNAc(b1-2)Man(a1-3)[Gal(b1-4)GlcNAc(b1-3)Gal(b1-4)GlcNAc(b1-3)Gal(b1-4)GlcNAc(b1-3)Gal(b1-4)GlcNAc(b1-3)Gal(b1-4)GlcNAc(b1-2)Man(a1-6)]Man(b1-4)GlcNAc(b1-4)GlcNAc
Outline: as §1

[19] = biological target: Gal(b1-4)GlcNAc(b1-3)Gal(b1-4)GlcNAc(b1-3)Gal(b1-4)GlcNAc(b1-3)Gal(b1-4)GlcNAc(b1-3)Gal(b1-4)GlcNAc(b1-2)Man(a1-3)[Gal(b1-4)GlcNAc(b1-3)Gal(b1-4)GlcNAc(b1-3)Gal(b1-4)GlcNAc(b1-3)Gal(b1-4)GlcNAc(b1-3)Gal(b1-4)GlcNAc(b1-2)Man(a1-6)]Man(b1-4)GlcNAc(b1-4)[Fuc(a1-6)]GlcNAc
Outline: as §1

[20] = biological target: Gal(b1-4)GlcNAc(b1-3)Gal(b1-4)GlcNAc(b1-3)Gal(b1-4)GlcNAc(b1-3)Gal(b1-4)GlcNAc(b1-3)Gal(b1-4)GlcNAc(b1-2)[Gal(b1-4)GlcNAc(b1-3)Gal(b1-4)GlcNAc(b1-3)Gal(b1-4)GlcNAc(b1-3)Gal(b1-4)GlcNAc(b1-3)Gal(b1-4)GlcNAc(b1-6)]Man(a1-6)[Gal(b1-4)GlcNAc(b1-3)Gal(b1-4)GlcNAc(b1-3)Gal(b1-4)GlcNAc(b1-3)Gal(b1-4)GlcNAc(b1-3)Gal(b1-4)GlcNAc(b1-2)Man(a1-3)]Man(b1-4)GlcNAc(b1-4)[Fuc(a1-6)]GlcNAc
Outline: as §1

[21] = biological target: Gal(b1-4)GlcNAc(b1-3)Gal(b1-4)GlcNAc(b1-3)Gal(b1-4)GlcNAc(b1-3)Gal(b1-4)GlcNAc(b1-3)Gal(b1-4)GlcNAc(b1-3)Gal(b1-4)GlcNAc(b1-2)Man(a1-3)[Gal(b1-4)GlcNAc(b1-3)Gal(b1-4)GlcNAc(b1-3)Gal(b1-4)GlcNAc(b1-3)Gal(b1-4)GlcNAc(b1-3)Gal(b1-4)GlcNAc(b1-3)Gal(b1-4)GlcNAc(b1-2)Man(a1-6)]Man(b1-4)GlcNAc(b1-4)GlcNAc
Outline: as §1

[22] = biological target: Gal(b1-4)GlcNAc(b1-3)Gal(b1-4)GlcNAc(b1-3)GalNAc
Outline: as §1

[23] = biological target: Gal(b1-4)GlcNAc(b1-3)Gal(b1-4)GlcNAc(b1-3)[Gal(b1-4)GlcNAc(b1-3)Gal(b1-4)GlcNAc(b1-6)]GalNAc
Outline: as §1

[24] = biological target: Gal(b1-4)GlcNAc(b1-3)Gal(b1-4)GlcNAc(b1-6)[Gal(b1-3)]GalNAc
Outline: as §1

[25] = biological target: Gal(b1-4)GlcNAc(b1-3)Gal(b1-4)[Fuc(a1-3)]GlcNAc(b1-3)Gal(b1-4)[Fuc(a1-3)]GlcNAc
Outline: as §1

[26] = biological target: Gal(b1-4)GlcNAc(b1-3)GalNAc
Outline: as §1

[27] = biological target: Gal(b1-4)GlcNAc(b1-3)[Fuc(a1-3)GlcNAc(b1-6)]Gal(b1-4)Glc
Outline: as §1

[28] = biological target: Gal(b1-4)GlcNAc(b1-3)[Gal(b1-4)GlcNAc(b1-6)]Gal(b1-4)GlcNAc
Outline: as §1

[29] = biological target: Gal(b1-4)GlcNAc(b1-3)[GlcNAc(b1-6)]Gal(b1-4)GlcNAc
Outline: as §1

[30] = biological target: Gal(b1-4)GlcNAc(b1-6)Gal(b1-4)GlcNAc
Outline: as §1

[31] = biological target: Gal(b1-4)GlcNAc(b1-6)GalNAc
Outline: as §1

[32] = biological target: Gal(b1-4)GlcNAc(b1-6)[Gal(b1-3)]GalNAc
Outline: as §1

[33] = biological target: Gal(b1-4)GlcNAc(b1-6)[Gal(b1-4)GlcNAc(b1-3)]GalNAc
Outline: as §1

Gal(b1-4)GlcNAc6P = biological target: Gal(b1-4)GlcNAc6P
Outline: as §1

Gal(b1-6)Gal = biological target: Gal(b1-6)Gal
Outline: as §1

Gal3S(b1-3)GalNAc = biological target: Gal3S(b1-3)GalNAc
Outline: as §1

Gal3S(b1-3)GlcNAc = biological target: Gal3S(b1-3)GlcNAc
Outline: as §1

[34] = biological target: Gal3S(b1-3)[Fuc(a1-4)]GlcNAc
Outline: as §1

B1: truncCC1G-10077 (Coprinopsis cinerea) (protein)
chain: MHHHHHHHHPLPSPGPGWVLIQNGGTGKFLCSTPSGDIGTADGPETVYDYSVQWRFIQREYTGVYHVVNRATGAYLRQIGTSMPSIGLAEENDDELKDWWMLETYDNSEIGLASIISRWTGNVLDHYGGVSVQALDNNTENSYRSWAIIPARDWLTSFSLVNGQGGLCLAAQYAREETRLSTTANVNDFHAQWVFRKPSGSSGYTIQNKYNNHYVGGTSARWELVVCCNKYFGIRNTSTQKYLAIEDGQVTFQDQDMTDRKQCWELCSGRATDTSGNDYDLIYMDDDLLEVMIPWVGDKQGDLKHYIEKRATKKPPKDKGGWQLPAAGLIKKPKFNDIRQLLQELIEQWEWDVVNEEREQIQTLVSIDEAEARRLLGRRPHPDIVAAYQRSRSSTLFRIDRQGYFNIAGDRYVNIQGQYGDDSYFHIALPVGVRFGREQIRRFLRDSLDRSTSVTITPTTCKPPSGGPDYNRDPDSDGDNSWIKWTIAVVGTSAIKHSEL
glycan array binding signal (z-score) [1]: -0.119
glycan array binding signal (z-score) [2]: -0.091
glycan array binding signal (z-score) [3]: -0.625
glycan array binding signal (z-score) [4]: -1.23
glycan array binding signal (z-score) [5]: -1.04
glycan array binding signal (z-score) [6]: -1.09
glycan array binding signal (z-score) [7]: 2.16
glycan array binding signal (z-score) [8]: 1.7
glycan array binding signal (z-score) [9]: 3.74
glycan array binding signal (z-score) [10]: 0.923
glycan array binding signal (z-score) [11]: -0.532
glycan array binding signal (z-score) [12]: 2.49
glycan array binding signal (z-score) [13]: 0.712
glycan array binding signal (z-score) [14]: 1.26
glycan array binding signal (z-score) [15]: 1.63
glycan array binding signal (z-score) [16]: 0.374
glycan array binding signal (z-score) [17]: 0.85
glycan array binding signal (z-score) [18]: -0.417
glycan array binding signal (z-score) [19]: 0.033
glycan array binding signal (z-score) [20]: 1.26
glycan array binding signal (z-score) [21]: -0.275
glycan array binding signal (z-score) [22]: -0.305
glycan array binding signal (z-score) [23]: 0.535
glycan array binding signal (z-score) [24]: 1.52
glycan array binding signal (z-score) [25]: -0.221
glycan array binding signal (z-score) [26]: -0.54
glycan array binding signal (z-score) [27]: -1.18
glycan array binding signal (z-score) [28]: -0.821
glycan array binding signal (z-score) [29]: -1.04
glycan array binding signal (z-score) [30]: -0.211
glycan array binding signal (z-score) [31]: 0.72
glycan array binding signal (z-score) [32]: 0.232
glycan array binding signal (z-score) [33]: 0.073
glycan array binding signal (z-score) (Gal(b1-4)GlcNAc6P): -0.197
glycan array binding signal (z-score) (Gal(b1-6)Gal): 1.23
glycan array binding signal (z-score) (Gal3S(b1-3)GalNAc): -1.1
glycan array binding signal (z-score) (Gal3S(b1-3)GlcNAc): -0.706
glycan array binding signal (z-score) [34]: 1.32
